Results: patent US5968903A, “Inhibition of H. pylori proliferation” (Biomeasure, Incorporated, priority 1998, dated 1999)
At least one structure is not confirmed: it was looked up by name or label, or the drawing left a doubt.

By UniProt entry, the sequences of proteins in these tests, tags left out. Where a name states a change or a piece, a line headed by the entry shows the natural chain unless it says otherwise.
UniProt P30874: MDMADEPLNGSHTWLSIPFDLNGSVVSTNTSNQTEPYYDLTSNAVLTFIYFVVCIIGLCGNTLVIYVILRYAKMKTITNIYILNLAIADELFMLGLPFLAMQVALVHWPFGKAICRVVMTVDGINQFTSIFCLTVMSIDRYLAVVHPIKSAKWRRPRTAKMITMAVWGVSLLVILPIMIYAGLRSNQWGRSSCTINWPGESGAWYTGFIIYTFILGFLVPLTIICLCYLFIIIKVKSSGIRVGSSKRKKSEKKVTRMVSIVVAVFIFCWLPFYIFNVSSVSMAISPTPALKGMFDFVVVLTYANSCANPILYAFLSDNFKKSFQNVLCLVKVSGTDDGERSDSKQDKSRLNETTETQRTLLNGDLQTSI
UniProt P30872: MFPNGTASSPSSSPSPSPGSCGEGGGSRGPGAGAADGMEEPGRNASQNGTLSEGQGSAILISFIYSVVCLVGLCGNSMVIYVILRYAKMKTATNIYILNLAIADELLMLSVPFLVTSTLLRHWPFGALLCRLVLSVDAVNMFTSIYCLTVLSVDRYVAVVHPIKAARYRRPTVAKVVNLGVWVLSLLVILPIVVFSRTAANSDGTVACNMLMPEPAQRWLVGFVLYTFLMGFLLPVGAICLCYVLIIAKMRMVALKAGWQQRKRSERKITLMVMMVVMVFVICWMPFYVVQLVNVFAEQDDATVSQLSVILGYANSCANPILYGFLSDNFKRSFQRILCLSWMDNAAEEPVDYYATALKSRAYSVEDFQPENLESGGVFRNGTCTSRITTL
UniProt P31391: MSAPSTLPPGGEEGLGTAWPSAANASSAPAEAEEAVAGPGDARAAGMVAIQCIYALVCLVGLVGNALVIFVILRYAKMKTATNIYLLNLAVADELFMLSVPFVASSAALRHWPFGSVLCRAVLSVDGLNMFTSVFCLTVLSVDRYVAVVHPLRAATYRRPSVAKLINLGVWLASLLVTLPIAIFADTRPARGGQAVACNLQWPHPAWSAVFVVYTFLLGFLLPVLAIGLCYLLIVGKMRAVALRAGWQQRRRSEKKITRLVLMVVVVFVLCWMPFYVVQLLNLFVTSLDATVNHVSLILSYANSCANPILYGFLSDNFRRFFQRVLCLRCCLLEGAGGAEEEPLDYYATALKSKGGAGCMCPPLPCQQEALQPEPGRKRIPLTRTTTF
UniProt P32745: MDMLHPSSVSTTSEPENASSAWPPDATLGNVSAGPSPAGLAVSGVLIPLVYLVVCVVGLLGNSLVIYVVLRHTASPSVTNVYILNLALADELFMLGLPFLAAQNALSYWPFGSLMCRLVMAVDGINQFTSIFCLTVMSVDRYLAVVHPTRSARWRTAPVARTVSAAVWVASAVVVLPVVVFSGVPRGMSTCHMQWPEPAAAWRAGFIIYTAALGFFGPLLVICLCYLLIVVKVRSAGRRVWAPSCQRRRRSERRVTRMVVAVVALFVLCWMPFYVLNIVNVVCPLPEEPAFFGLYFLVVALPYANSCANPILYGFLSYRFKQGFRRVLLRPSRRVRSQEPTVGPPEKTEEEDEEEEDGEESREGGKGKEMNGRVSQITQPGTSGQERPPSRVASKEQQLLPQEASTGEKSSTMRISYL
UniProt P35346: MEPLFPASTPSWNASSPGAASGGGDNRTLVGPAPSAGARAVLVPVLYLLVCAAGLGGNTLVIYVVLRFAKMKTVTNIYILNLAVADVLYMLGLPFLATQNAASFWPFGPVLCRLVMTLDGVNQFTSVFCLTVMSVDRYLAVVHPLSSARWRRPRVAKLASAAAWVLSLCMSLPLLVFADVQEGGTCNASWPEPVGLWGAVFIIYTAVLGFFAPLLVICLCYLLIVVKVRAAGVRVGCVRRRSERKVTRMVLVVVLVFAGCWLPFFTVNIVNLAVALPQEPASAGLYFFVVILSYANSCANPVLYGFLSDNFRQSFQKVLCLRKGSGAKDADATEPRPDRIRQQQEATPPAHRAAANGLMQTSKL

Key:
Settings in all cases: [125I-Tyr11]somatostatin-14, CHO-K1 membranes
human SSTR-2 = human SSTR-2 (Homo sapiens, UniProt P30874); test: Somatostatin receptor binding assay, hSSTR-2
human SSTR-1 = human SSTR-1 (Homo sapiens, UniProt P30872); test: Somatostatin receptor binding assay, hSSTR-1
human SSTR-4 = human SSTR-4 (Homo sapiens, UniProt P31391); test: Somatostatin receptor binding assay, hSSTR-4
human SSTR-3 = human SSTR-3 (Homo sapiens, UniProt P32745); test: Somatostatin receptor binding assay, hSSTR-3
human SSTR-5 = human SSTR-5 (Homo sapiens, UniProt P35346); test: Somatostatin receptor binding assay, hSSTR-5

`C[C@@H](O)[C@@H]1NC(=O)[C@H](CCCCN)NC(=O)[C@@H](Cc2c[nH]c3ccccc23)NC(=O)[C@H](Cc2ccc(O)c(I)c2)NC(=O)[C@H](Cc2ccccc2)NC(=O)[C@@H](N)CSSC[C@@H](C(N)=O)NC(=O)[C@H](Cc2ccccc2)NC1=O` [Example 110, H-Cys-Phe-Tyr(l)-D-Trp-Lys-Thr-Phe-Cys-NH2] showed a Ki (human SSTR-2) of 4.78 nM, a Ki (human SSTR-1) of 15.1 nM and a Ki (human SSTR-4) of 55.3 nM. It also gave a Ki (human SSTR-3) of 25.5 nM and a Ki (human SSTR-5) of 0.3 nM.
